The other results are listed elsewhere or left out. The calls rarely recur for the same compound in another form.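 Kinases were expressed as nanoluciferase fusions in K562 cells and luminescence was read every 4 h between 2 and 18 h as percent of control, DMSO set to 100% and a positive control to 0%. A time point counts as decreased when the signal drops significantly (2 sigma). The hit call is the authors' own, does not follow from the count of time points alone, and its rule is not shown.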
Key:
Details in all cases: K562; 2-18 h
RET = RET (UniProt P07949); assay: kinase-Nluc reporter destabilization hit call (1 = scored as downregulated) (binary); higher = compound decreases kinase abundance
[1] = biological target: RET_M918T (clone: RET_mut) (UniProt P07949); assay: as above
RIOK1 = RIOK1 (UniProt Q9BRS2); assay: as above
RIPK1 = RIPK1 (UniProt Q13546); assay: as above
RIPK2 = RIPK2 (UniProt O43353); assay: as above
ROR2 = ROR2 (UniProt Q01974); assay: as above
RPS6KA1 = RPS6KA1 (UniProt Q15418); assay: as above
SPHK1 = SPHK1 (UniProt Q9NYA1); assay: as above
SRC = SRC (UniProt P12931); assay: as above
STK24 = STK24 (UniProt Q9Y6E0); assay: as above
STK38 = STK38 (UniProt Q15208); assay: as above
SYK = SYK (UniProt P43405); assay: as above
TEC = TEC (UniProt P42680); assay: as above
TYK2 = TYK2 (UniProt P29597); assay: as above
ULK3 = ULK3 (UniProt Q6PHR2); assay: as above
YES1 = YES1 (UniProt P07947); assay: as above
ZAK = ZAK (UniProt Q9NYL2); assay: as above
ZAP70 = ZAP70 (UniProt P43403); assay: as above
ABL1 = ABL1 (UniProt P00519); assay: number of time points (of 5) at which kinase-Nluc abundance scored as decreased, DMSO-normalised (count); higher = more persistent destabilization
AKT1 = AKT1 (UniProt P31749); assay: as above

The chains behind the UniProt entries cited, without tags or fusion partners. Where a name states a change or a piece, a line headed by the entry shows the natural chain unless it says otherwise.
UniProt P07949, whole entry, looked up: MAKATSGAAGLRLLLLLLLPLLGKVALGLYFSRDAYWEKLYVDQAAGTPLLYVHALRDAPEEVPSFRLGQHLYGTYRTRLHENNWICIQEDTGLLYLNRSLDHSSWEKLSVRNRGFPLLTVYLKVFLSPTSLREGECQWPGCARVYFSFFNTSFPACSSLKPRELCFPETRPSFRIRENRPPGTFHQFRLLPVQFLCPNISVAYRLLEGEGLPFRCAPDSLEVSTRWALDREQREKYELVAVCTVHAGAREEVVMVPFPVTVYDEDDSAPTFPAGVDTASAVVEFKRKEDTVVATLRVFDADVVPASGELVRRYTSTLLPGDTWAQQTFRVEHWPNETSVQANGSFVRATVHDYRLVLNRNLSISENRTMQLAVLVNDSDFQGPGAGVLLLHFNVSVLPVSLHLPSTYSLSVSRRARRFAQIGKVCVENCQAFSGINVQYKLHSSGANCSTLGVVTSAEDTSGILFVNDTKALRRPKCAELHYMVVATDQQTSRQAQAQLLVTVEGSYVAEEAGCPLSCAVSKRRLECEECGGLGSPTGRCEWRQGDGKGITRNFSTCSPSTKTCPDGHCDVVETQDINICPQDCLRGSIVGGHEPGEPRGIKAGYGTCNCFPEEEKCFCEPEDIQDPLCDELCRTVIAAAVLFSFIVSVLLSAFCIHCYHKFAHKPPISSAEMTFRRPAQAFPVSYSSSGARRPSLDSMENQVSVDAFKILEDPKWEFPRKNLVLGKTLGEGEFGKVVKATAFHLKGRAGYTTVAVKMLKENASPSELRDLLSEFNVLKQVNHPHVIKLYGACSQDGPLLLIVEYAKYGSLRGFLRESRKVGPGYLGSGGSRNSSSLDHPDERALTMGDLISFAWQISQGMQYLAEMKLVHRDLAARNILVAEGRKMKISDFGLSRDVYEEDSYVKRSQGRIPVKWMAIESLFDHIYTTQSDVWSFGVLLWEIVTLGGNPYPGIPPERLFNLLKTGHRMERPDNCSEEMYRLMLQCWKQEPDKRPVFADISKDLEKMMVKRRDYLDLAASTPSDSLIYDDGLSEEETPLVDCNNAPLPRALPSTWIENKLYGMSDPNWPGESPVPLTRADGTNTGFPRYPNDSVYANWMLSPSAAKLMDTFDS
UniProt P07949, whole entry M918T, looked up: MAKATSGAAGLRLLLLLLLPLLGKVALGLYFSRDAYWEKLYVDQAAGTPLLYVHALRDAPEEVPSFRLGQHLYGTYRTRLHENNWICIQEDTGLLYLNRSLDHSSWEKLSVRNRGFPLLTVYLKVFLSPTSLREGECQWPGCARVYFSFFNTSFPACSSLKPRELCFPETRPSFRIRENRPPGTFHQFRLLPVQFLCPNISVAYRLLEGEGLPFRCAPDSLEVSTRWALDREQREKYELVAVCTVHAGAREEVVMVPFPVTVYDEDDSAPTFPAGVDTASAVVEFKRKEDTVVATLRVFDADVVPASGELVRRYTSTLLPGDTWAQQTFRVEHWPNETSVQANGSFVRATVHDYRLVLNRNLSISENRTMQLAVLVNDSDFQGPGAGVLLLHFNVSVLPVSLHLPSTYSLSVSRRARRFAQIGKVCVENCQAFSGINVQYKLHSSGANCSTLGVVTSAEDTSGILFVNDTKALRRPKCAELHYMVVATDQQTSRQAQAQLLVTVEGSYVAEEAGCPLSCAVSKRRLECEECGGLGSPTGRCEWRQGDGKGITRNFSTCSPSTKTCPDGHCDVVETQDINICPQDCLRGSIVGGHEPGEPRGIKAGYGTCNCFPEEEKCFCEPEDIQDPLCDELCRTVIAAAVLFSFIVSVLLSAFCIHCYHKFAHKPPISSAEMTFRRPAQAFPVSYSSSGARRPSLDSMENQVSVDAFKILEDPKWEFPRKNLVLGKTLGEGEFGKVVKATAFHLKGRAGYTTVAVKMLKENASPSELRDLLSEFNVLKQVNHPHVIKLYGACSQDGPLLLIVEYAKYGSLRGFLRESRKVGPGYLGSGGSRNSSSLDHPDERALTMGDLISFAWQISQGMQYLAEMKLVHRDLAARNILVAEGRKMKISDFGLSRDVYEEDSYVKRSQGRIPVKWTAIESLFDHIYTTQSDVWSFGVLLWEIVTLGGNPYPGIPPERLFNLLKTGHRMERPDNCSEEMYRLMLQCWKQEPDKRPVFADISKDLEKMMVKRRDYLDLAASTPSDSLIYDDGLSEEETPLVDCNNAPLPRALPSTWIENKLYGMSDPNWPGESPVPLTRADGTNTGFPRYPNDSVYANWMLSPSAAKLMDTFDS
UniProt Q9BRS2: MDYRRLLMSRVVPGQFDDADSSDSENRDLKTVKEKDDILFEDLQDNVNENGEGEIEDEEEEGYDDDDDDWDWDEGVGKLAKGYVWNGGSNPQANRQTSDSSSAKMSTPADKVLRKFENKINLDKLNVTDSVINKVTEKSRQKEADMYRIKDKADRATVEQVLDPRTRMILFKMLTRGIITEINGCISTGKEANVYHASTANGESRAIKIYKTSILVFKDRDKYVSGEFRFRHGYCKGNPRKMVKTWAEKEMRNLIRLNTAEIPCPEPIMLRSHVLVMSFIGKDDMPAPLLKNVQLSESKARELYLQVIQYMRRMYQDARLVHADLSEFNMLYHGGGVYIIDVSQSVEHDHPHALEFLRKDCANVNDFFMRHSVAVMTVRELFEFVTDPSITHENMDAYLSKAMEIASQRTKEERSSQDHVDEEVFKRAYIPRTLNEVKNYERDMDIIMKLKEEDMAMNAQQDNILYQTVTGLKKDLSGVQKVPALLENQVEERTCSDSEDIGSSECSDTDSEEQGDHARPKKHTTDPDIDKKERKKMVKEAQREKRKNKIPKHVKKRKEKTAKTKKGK
UniProt Q15418, whole entry: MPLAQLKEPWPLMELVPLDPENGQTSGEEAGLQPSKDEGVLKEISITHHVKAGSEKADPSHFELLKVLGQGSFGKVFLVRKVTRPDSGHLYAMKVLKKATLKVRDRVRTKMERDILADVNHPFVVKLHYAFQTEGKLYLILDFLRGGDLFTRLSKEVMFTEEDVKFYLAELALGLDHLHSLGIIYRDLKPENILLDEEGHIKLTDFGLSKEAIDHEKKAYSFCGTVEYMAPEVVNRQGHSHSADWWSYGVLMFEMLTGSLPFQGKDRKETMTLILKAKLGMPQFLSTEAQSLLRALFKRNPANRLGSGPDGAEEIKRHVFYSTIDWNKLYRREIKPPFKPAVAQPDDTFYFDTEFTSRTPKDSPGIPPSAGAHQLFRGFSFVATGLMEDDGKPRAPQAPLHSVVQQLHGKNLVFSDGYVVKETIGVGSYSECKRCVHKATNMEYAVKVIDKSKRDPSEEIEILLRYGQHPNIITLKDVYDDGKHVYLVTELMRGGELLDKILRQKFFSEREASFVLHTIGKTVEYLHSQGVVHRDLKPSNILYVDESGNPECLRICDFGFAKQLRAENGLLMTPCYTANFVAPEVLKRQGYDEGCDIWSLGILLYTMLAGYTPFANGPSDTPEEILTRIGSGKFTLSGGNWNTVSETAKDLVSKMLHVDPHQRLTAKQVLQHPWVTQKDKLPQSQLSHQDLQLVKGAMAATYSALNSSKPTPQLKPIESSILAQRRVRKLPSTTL
UniProt Q9Y6E0: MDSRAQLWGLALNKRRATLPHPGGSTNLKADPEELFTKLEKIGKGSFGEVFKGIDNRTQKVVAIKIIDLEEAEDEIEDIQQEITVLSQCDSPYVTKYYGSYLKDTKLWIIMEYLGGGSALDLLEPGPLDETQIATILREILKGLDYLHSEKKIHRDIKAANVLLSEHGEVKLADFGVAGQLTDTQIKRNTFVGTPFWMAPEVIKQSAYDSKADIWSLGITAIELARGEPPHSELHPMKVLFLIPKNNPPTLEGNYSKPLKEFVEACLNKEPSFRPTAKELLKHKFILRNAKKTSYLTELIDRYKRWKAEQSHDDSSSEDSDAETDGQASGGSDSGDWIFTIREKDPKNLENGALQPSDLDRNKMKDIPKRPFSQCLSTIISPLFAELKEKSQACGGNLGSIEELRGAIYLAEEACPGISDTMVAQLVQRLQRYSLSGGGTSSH
UniProt Q15208: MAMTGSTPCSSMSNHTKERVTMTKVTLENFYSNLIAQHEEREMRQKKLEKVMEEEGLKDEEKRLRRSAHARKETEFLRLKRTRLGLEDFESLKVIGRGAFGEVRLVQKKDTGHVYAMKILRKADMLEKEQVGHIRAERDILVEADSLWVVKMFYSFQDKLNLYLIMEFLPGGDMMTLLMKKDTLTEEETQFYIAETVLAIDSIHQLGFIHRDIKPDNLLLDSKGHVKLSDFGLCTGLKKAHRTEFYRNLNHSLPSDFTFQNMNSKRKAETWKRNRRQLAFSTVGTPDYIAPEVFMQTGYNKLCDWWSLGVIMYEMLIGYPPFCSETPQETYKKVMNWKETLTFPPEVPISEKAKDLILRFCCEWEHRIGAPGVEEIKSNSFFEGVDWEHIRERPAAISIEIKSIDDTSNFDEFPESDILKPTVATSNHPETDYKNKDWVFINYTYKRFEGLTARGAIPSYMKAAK
UniProt Q6PHR2: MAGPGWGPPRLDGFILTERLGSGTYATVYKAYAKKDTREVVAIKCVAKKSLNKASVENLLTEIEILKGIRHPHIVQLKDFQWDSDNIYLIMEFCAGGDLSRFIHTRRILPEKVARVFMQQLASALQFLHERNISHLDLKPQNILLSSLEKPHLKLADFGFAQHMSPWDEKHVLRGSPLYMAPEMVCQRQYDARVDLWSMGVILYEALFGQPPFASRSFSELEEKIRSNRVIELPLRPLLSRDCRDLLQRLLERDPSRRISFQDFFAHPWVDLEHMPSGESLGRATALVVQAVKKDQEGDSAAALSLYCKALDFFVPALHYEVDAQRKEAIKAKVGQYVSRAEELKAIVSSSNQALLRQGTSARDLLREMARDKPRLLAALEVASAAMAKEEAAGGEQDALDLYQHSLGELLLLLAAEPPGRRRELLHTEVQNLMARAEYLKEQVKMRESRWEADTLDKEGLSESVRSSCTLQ
UniProt P00519, whole entry: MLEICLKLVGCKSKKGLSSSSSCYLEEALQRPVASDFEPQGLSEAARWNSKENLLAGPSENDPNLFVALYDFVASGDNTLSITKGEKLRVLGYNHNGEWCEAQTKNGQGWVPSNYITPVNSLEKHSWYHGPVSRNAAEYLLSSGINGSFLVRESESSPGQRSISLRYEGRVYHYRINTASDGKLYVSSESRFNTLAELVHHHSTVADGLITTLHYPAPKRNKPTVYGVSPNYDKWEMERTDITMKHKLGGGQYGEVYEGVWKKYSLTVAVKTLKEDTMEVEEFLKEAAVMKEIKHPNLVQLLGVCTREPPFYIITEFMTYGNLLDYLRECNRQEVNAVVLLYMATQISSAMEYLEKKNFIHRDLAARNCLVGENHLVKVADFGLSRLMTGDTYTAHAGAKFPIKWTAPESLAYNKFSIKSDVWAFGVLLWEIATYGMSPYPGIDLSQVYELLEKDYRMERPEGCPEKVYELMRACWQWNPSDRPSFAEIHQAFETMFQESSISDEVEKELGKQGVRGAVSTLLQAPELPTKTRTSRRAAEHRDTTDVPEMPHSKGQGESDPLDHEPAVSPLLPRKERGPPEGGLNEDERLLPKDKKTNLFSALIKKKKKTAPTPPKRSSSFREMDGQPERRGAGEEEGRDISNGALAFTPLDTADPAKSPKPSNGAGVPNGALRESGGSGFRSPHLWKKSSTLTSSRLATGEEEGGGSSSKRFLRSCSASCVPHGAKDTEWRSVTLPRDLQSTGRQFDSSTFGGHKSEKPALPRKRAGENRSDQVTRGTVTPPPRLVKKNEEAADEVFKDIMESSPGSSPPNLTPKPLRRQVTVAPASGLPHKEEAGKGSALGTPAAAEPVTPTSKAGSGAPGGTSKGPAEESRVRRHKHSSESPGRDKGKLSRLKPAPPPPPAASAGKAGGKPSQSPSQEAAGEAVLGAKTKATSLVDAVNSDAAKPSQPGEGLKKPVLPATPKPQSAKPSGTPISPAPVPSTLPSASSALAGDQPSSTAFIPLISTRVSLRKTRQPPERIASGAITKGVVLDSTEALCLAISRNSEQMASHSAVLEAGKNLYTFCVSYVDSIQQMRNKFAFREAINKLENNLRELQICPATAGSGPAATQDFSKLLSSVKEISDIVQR
UniProt P31749: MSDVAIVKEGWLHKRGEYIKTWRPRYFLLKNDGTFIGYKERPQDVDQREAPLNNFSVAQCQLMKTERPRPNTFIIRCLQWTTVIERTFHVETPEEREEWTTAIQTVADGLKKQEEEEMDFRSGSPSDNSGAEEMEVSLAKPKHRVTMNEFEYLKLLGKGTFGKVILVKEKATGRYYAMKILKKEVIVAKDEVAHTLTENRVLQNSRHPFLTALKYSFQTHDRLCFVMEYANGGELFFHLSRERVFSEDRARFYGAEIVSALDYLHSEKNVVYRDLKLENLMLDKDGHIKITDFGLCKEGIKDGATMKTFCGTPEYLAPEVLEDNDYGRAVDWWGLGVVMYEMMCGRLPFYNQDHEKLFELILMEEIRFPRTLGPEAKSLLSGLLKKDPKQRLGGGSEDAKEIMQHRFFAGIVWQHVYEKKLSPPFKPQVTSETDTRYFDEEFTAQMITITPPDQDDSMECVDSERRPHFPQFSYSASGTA

Structure (SMILES) | kinase-Nluc reporter destabilization hit call (RET) | kinase-Nluc reporter destabilization hit call [1] | kinase-Nluc reporter destabilization hit call (RIOK1) | kinase-Nluc reporter destabilization hit call (RIPK1) | kinase-Nluc reporter destabilization hit call (RIPK2) | kinase-Nluc reporter destabilization hit call (ROR2) | kinase-Nluc reporter destabilization hit call (RPS6KA1) | kinase-Nluc reporter destabilization hit call (SPHK1) | kinase-Nluc reporter destabilization hit call (SRC) | kinase-Nluc reporter destabilization hit call (STK24) | kinase-Nluc reporter destabilization hit call (STK38) | kinase-Nluc reporter destabilization hit call (SYK) | kinase-Nluc reporter destabilization hit call (TEC) | kinase-Nluc reporter destabilization hit call (TYK2) | kinase-Nluc reporter destabilization hit call (ULK3) | kinase-Nluc reporter destabilization hit call (YES1) | kinase-Nluc reporter destabilization hit call (ZAK) | kinase-Nluc reporter destabilization hit call (ZAP70) | number of time points (ABL1) | number of time points (AKT1)
Cc1cccc([C@@H](CO)NC(=O)[C@@H](C)N2Cc3ccc(-c4nc(NC5CCOCC5)ncc4Cl)cc3C2=O)c1 [ERK1/2 inhibitor 1] (10 µM) | inactive: 0 | inactive: 0 | inactive: 0 | inactive: 0 | inactive: 0 | inactive: 0 | inactive: 0 | inactive: 0 | inactive: 0 | inactive: 0 | inactive: 0 | inactive: 0 | inactive: 0 | inactive: 0 | inactive: 0 | inactive: 0 | inactive: 0 | inactive: 0 | 0 | 0
C=CC(=O)N[C@H]1COC[C@H]1Nc1ncc2cc(-c3c(Cl)c(OC)cc(OC)c3Cl)c(=O)n(C)c2n1 (10 µM) | inactive: 0 | inactive: 0 | inactive: 0 | inactive: 0 | inactive: 0 | inactive: 0 | inactive: 0 | inactive: 0 | inactive: 0 | inactive: 0 | inactive: 0 | inactive: 0 | inactive: 0 | inactive: 0 | inactive: 0 | inactive: 0 | inactive: 0 | inactive: 0 | 0 | 0
COc1cc2ncnc(Nc3cccc(Cl)c3F)c2cc1OC(=O)N1CCN(C)C[C@H]1C [Zorifertinib] (10 µM) | inactive: 0 | inactive: 0 | inactive: 0 | inactive: 0 | inactive: 0 | inactive: 0 | inactive: 0 | inactive: 0 | inactive: 0 | inactive: 0 | inactive: 0 | inactive: 0 | inactive: 0 | inactive: 0 | inactive: 0 | inactive: 0 | inactive: 0 | inactive: 0 | 0 | 0
Nc1nc(N)c(N=O)c(OCC2CCCCC2)n1 (10 µM) | inactive: 0 | inactive: 0 | inactive: 0 | inactive: 0 | inactive: 0 | inactive: 0 | inactive: 0 | inactive: 0 | inactive: 0 | inactive: 0 | inactive: 0 | inactive: 0 | inactive: 0 | inactive: 0 | inactive: 0 | inactive: 0 | inactive: 0 | inactive: 0 | 0 | 0
CN1CCN(c2ccc(C(=O)Nc3n[nH]c4ccc(Cc5cc(F)cc(F)c5)cc34)c(NC3CCOCC3)c2)CC1 [Entrectinib] (2.5 µM) | inactive: 0 | inactive: 0 | inactive: 0 | inactive: 0 | inactive: 0 | inactive: 0 | inactive: 0 | inactive: 0 | inactive: 0 | inactive: 0 | inactive: 0 | inactive: 0 | inactive: 0 | inactive: 0 | inactive: 0 | inactive: 0 | inactive: 0 | inactive: 0 | 0 | 0
N#CC(=Cc1ccc(O)c(O)c1)C(=O)NCc1ccccc1 (mixture of isomers) (10 µM) | inactive: 0 | inactive: 0 | inactive: 0 | inactive: 0 | inactive: 0 | inactive: 0 | inactive: 0 | inactive: 0 | inactive: 0 | inactive: 0 | inactive: 0 | inactive: 0 | inactive: 0 | inactive: 0 | inactive: 0 | inactive: 0 | inactive: 0 | inactive: 0 | 0 | 0
COc1ccc(C=C(C#N)c2cccnc2)cc1OC (10 µM) | inactive: 0 | inactive: 0 | inactive: 0 | inactive: 0 | inactive: 0 | inactive: 0 | inactive: 0 | inactive: 0 | inactive: 0 | inactive: 0 | inactive: 0 | inactive: 0 | inactive: 0 | inactive: 0 | inactive: 0 | inactive: 0 | inactive: 0 | inactive: 0 | 0 | 0
CCn1c(=O)c2cc(C(N)=O)c(N)nc2n(C2CC2)c1=O (10 µM) | inactive: 0 | inactive: 0 | inactive: 0 | inactive: 0 | inactive: 0 | inactive: 0 | inactive: 0 | inactive: 0 | inactive: 0 | inactive: 0 | inactive: 0 | inactive: 0 | inactive: 0 | inactive: 0 | inactive: 0 | inactive: 0 | inactive: 0 | inactive: 0 | 0 | 0
CC(C)(C)n1nc(Cc2cccc3ccccc23)c2c(N)ncnc21 (10 µM) | inactive: 0 | inactive: 0 | inactive: 0 | inactive: 0 | inactive: 0 | inactive: 0 | inactive: 0 | inactive: 0 | inactive: 0 | inactive: 0 | inactive: 0 | inactive: 0 | inactive: 0 | inactive: 0 | inactive: 0 | inactive: 0 | inactive: 0 | inactive: 0 | 0 | 0
